Results on 15 compounds are retold here after PubChem BioAssay AID330 (DTP/NCI, 2004).

Molecules are shown by their SMILES. The list does not hold the whole screen: it gathers tests that were run many times, whatever their T/C, doses with no T/C, and many T/C values between a quarter and a half above the control. Other doses and runs of a compound stand elsewhere. T/C: endpoint of the treated group in % of that of the vehicle group. Some entries give survivors of the animals treated and no T/C: the source holds a T/C of zero for them, seemingly a mark for toxic or unscored doses. Some doses without a T/C left all or most animals alive at the check, yet need not have been tolerated: the source hardly ever lists a survival T/C far under the control, and the zero likely stands for such cases as well. Survivors were counted at the toxicity check, usually on the fifth day, unless a day is given; later deaths do not show. Schedule codes are those of the source, taken here to give the interval after Q, in days (D) or hours (H), and the number of doses after X. Where survival is the endpoint, this PubChem deposit counts one and a half times the control or more as active, and values a quarter to a half above the control carry no call in these data; other NCI protocols may use other cut-offs. Some T/C values carry the count of animals alive at the toxicity check (mostly the fifth day); where none is given, no animal had died by that day.

The test has as its system P388 leukemia ip, CD2F1 mice, survival T/C. The test can be described thus: NCI In Vivo Anticancer Drug Screen. Data for tumor model P388 Leukemia (intraperitoneal) in CD2F1 (CDF1) mice. Particulars: T/C endpoint: median survival time, higher T/C = longer survival.
[1] abbreviates: dose: 100.0 mg/kg/injection, schedule: Q01DX005 (ip), vehicle: saline.
Setting [2] is: dose: 200.0 mg/kg/injection, schedule: Q01DX005 (ip), vehicle: saline.
Where [3] appears, read: dose: 50.0 mg/kg/injection, schedule: Q01DX009 (ip), vehicle: saline.
The mark [4] stands for this setting: dose: 100.0 mg/kg/injection, schedule: Q01DX009 (ip), vehicle: saline.
Setting [5] is: dose: 200.0 mg/kg/injection, schedule: Q01DX009 (ip), vehicle: saline.
The mark [6] stands for this setting: dose: 40.0 mg/kg/injection, schedule: Q04DX003 (ip), vehicle: saline with Tween-80.

Take `COc1cccc(/C=C/C(=O)C(CN(C)C)CN(C)C)c1`: the survivor count is reported as 0 of 6 (dose: 25.0 mg/kg/injection, schedule: Q01DX005 (ip), vehicle: saline); 0 of 6 (dose: 50.0 mg/kg/injection, schedule: Q01DX005 (ip), vehicle: saline); 0 of 6 under setting [1]; 0 of 6 under setting [2].
For `COc1ccc(/C=C2\N=C(c3ccccc3)OC2=O)c(OCc2ccccc2)c1`, the survivor count (dose: 50.0 mg/kg/injection, schedule: Q01DX009 (ip), vehicle: other) was 6 of 6.
Take `COc1cc2c3c(c1O)-c1cc4c(cc1CC3N(C)CC2)OCO4` (stereo not given): the survivor count (dose: 200.0 mg/kg/injection, schedule: Q04DX002 (ip), vehicle: saline with Tween-80) is reported as 0 of 6 and the survivor count (dose: 400.0 mg/kg/injection, schedule: Q04DX002 (ip), vehicle: saline with Tween-80) is on record as 0 of 6.
With `CCCCCCOc1cccc(OCCCC[N+]2(CC)CCCCC2)c1`, the survivor count by setting is: under setting [3], 0 of 6; under setting [4], 0 of 6; under setting [5], 0 of 6.
In the case of `ClC(Cl)(Cl)C1=NC2=C(Br)C=C(Br)C3=NC(C(Br)(Br)Br)=NC(=N1)N32`, under “dose: 240.0 mg/kg/injection, schedule: Q01DX005 (ip), vehicle: Klucel + Tween-80”, the survivor count was 1 of 6.
For the compound `CCC(CC)OCCN1CCN(CCCN2c3ccccc3Sc3ccc(C(F)(F)F)cc32)CC1`, under setting [6], the T/C was 131 % of control [5 of 6 alive] and the survivor count is 6 of 6.
Take `C=C(CNC(C)(C)C)C(=O)c1ccccc1`: the survivor count is recorded as 0 of 6 under setting [3], 0 of 6 under setting [4] and 0 of 6 under setting [5].
`COCCOC(C)C(/C=N/N=C(N)N)=N/N=C(N)N` (stereo not given): the survivor count runs as follows: under setting [1], 1 of 6; under setting [2], 0 of 6.
With `c1cnc2c(c1)C1OC(S2)c2cccnc2S1`, the survivor count (dose: 200.0 mg/kg/injection, schedule: Q01DX009 (ip), vehicle: saline with Tween-80) is reported as 0 of 6.
As for `ClCC#CCCl`, the survivor count is recorded as 4 of 6 (dose: 25.0 mg/kg/injection, schedule: Q01DX009 (ip), vehicle: saline with Tween-80); 0 of 6 (dose: 50.0 mg/kg/injection, schedule: Q01DX009 (ip), vehicle: saline with Tween-80); 0 of 6 (dose: 100.0 mg/kg/injection, schedule: Q01DX009 (ip), vehicle: saline with Tween-80).
Take `CCN(CC)Sc1cccc([N+](=O)[O-])c1`: the survivor count is, setting by setting: (dose: 100.0 mg/kg/injection, schedule: Q01DX009 (ip), vehicle: Klucel (hydroxypropylcellulose) (HPC)) 1 of 6; (dose: 200.0 mg/kg/injection, schedule: Q01DX009 (ip), vehicle: Klucel (hydroxypropylcellulose) (HPC)) 0 of 6.
As to `CCCCOc1ccc2nc3cc(Cl)ccc3c(Cl)c2n1`, the survivor count reads like this: (dose: 50.0 mg/kg/injection, schedule: Q01DX005 (ip), vehicle: saline with Tween-80) 6 of 6; (dose: 100.0 mg/kg/injection, schedule: Q01DX005 (ip), vehicle: saline with Tween-80) 6 of 6; (dose: 200.0 mg/kg/injection, schedule: Q01DX005 (ip), vehicle: saline with Tween-80) 6 of 6.
`Nc1nc(N)c(N=O)c(Nc2ccc(Cl)c(Cl)c2)n1`: the survivor count (dose: 400.0 mg/kg/injection, schedule: Q04DX003 (ip), vehicle: saline with Tween-80) is reported as 3 of 6.
Take `CNC1C(O)C(OC2C(N)CC(N)C(OC3OC(CN)=CCC3N)C2O)OCC1(C)O` (stereo not given): the survivor count (dose: 250.0 mg/kg/injection, schedule: Q01DX009 (ip), vehicle: saline) is given as 3 of 6.
`Cc1ccc(S(=O)(=O)OCC(O)C(O)COS(=O)(=O)c2ccc(C)cc2)cc1` (stereo not given): the survivor count under setting [3] is 6 of 6.
